# According to article PMC11784139:
# Key:
# [1] = system: T1, 6xHis-APR1 (Acinetobacter venetianus RAG-1); assay: MST; settings: NT-647-NHS labeled APR1 10 uM, DNA 0.64-41400 nM, tag of MST protein not explicitly stated; MST: 50 mM PBS pH 7.2-7.4, temperature not stated; recombinant protein; residues 1-335; protein details: N-terminal 6xHis (pET-28a); probe letters rebuilt from the primers and the genome
# T1 sequence (looked up): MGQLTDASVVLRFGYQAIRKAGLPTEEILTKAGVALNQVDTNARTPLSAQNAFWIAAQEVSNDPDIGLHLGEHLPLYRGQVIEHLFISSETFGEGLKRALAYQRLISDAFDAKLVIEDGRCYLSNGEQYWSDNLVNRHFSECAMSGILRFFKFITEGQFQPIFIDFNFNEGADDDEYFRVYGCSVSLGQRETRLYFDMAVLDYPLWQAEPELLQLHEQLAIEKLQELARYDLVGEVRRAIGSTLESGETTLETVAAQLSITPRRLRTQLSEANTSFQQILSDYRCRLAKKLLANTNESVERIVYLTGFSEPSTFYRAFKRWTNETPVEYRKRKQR
# [2] = system: T1, 6xHis-APR1 (Acinetobacter venetianus RAG-1); assay: EMSA; settings: APR1 0-5.10 uM, DNA 110 nM; EMSA: 5 mM Tris-HCl pH 7.5, 0.1 mM EDTA, 5 mM MgCl2, 10 mM KCl, 0.2 mM DTT, 30 C, 30 min, native PAGE in 0.5x TBE; recombinant protein; residues 1-335; protein details: N-terminal 6xHis (pET-28a); probe letters rebuilt from the primers and the genome
sequence,measurement,setting,value
AATCAATTGTTTATACTCTATTAACAGCTTGTTTTATAACATTATGATTGCTAAAGGTTAACTCGATGCTTTGTATGTGAGTGTATTGAGCTTTCTATTTACATCAAAATTTTATAACAAATTATTTATACATTCATTGTGATTAACATATTTTTCATACTTTACACATATTACTTAAATTAAGTTTTTTGGTTATACGGAAAAAATGAATTTTTCTTAAACTCTGATCCTTTAATAAATTGCAAATCCAAGCAAAAATCTCAGGATTTTTTACACTCTCTTTTTCTAAAAATGTCCCGAAGTGACATGAAAAAACCGATGAATGACTAAACTTGACATTGTGTATTGTCAAATTTGTGCTTTAATAAAGTCATGGTTTATACAGGGTAT (double strand) [almA promoter],Kd,[1],97.2 nM
same,binding result,[2],binds

# Tags and fusion partners may be left off the protein sequences shown. For some assays here: Construct, isoform or probe ends are uncertain for at least one entry.
